Compound in the test: Nc1ncnc2c1ncn2[C@@H]1O[C@H](COP(=O)(O)OP(=O)(O)NP(=O)(O)O)[C@@H](O)[C@H]1O [adenylyl imidodiphosphate]
The test can be described thus: NP40-soluble protein abundance relative to vehicle (solubility fold change) (ratio); higher = more soluble protein in presence of AMP-PNP. Summed up: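 Data come from three independent experiments in which Dounce-homogenised Jurkat crude lysate was treated at eight concentrations from 0.1 to 10 mM. Treatment ran 10 min at room temperature and then 3 min at 37 °C, after which 0.8% NP40 and benzonase were added for 60 min at 4 °C before ultracentrifugation. The supernatant underwent TMT labelling and LC-MS/MS, and vsn-normalised intensities were expressed as fold change against the detergent-processed vehicle in each replicate.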

By UniProt entry, the sequences of proteins in these tests, tags left out. Where a name states a change or a piece, a line headed by the entry shows the natural chain unless it says otherwise.
UniProt Q8NDX6: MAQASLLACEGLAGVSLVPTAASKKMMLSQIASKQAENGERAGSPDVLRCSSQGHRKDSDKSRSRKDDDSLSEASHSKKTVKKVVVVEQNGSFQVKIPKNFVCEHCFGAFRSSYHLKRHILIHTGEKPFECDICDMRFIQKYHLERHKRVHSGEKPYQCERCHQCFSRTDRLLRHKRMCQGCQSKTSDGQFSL
UniProt Q8WZA9: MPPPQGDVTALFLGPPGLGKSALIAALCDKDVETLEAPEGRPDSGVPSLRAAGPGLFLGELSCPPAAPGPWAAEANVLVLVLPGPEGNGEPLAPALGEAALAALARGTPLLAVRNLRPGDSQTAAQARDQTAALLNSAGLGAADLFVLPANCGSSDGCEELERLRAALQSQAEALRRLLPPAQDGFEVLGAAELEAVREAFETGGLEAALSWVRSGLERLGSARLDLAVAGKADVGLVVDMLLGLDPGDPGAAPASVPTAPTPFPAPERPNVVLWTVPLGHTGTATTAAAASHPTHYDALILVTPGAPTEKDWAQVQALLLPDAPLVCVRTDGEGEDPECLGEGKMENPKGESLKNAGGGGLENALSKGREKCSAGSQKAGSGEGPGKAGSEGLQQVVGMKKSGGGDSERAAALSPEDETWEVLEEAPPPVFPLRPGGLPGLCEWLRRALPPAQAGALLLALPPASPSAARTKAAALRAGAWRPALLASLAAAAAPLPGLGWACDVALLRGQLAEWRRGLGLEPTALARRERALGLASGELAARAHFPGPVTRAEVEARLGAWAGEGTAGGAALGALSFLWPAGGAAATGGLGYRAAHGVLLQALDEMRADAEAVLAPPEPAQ
UniProt Q8TBE0: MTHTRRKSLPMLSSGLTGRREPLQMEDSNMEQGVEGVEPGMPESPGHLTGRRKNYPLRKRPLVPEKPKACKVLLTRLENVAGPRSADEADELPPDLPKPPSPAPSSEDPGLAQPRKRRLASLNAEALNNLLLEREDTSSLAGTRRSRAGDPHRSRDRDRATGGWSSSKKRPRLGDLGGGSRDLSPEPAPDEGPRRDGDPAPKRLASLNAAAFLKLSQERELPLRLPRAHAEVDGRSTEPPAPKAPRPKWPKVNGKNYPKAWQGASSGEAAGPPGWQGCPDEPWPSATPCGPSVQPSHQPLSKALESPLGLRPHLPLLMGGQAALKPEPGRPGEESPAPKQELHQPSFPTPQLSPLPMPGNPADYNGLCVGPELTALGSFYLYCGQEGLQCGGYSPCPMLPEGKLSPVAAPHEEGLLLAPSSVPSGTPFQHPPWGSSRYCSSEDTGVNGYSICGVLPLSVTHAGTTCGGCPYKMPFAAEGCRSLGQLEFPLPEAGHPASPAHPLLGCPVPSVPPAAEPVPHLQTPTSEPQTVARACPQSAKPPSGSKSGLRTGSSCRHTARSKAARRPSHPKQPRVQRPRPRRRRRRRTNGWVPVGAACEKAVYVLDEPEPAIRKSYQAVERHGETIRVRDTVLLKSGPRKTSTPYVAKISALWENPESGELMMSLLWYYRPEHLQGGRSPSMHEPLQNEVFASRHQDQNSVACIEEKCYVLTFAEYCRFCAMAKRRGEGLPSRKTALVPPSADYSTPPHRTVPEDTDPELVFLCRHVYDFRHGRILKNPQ
UniProt Q8TEX9: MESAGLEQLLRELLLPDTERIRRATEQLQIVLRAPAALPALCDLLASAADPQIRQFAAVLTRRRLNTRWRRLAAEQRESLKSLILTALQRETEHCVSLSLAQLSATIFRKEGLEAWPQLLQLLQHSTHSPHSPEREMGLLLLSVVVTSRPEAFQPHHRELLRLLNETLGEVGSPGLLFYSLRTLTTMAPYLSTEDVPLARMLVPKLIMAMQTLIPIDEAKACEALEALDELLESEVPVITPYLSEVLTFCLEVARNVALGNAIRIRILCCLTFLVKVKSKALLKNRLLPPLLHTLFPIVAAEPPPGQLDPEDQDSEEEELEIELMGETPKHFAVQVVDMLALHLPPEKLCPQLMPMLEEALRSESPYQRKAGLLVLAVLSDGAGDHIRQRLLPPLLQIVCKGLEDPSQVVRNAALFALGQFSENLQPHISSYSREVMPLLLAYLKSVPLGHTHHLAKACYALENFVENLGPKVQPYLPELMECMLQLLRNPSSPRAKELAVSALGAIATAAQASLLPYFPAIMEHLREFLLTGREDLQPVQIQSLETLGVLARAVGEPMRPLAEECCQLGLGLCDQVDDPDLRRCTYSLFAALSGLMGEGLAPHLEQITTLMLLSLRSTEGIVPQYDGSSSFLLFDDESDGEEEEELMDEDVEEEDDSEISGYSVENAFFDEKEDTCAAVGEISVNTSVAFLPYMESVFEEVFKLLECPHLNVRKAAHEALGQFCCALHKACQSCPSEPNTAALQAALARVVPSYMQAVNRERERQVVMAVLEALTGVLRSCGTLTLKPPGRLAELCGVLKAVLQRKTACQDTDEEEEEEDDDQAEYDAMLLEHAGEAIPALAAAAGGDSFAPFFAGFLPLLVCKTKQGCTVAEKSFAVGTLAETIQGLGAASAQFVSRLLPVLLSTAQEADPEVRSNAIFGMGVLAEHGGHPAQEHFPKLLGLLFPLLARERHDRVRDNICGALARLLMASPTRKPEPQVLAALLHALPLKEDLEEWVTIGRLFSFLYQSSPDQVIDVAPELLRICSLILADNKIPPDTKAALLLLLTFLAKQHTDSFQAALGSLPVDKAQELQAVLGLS
UniProt Q92783: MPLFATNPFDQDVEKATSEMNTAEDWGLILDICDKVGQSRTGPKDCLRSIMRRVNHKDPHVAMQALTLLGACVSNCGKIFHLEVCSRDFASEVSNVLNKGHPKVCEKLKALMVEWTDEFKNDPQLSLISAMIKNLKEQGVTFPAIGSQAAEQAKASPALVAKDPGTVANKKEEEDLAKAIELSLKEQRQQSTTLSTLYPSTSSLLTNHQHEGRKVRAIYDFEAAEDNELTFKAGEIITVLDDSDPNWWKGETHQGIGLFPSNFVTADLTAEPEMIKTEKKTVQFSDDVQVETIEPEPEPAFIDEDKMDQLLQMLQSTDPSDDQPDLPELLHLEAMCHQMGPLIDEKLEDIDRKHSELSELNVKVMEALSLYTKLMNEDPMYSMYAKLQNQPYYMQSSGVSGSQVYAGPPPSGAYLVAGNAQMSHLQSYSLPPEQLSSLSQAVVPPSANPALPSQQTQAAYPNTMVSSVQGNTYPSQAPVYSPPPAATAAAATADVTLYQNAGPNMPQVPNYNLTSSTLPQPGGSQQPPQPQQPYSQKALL
UniProt Q8TDX7: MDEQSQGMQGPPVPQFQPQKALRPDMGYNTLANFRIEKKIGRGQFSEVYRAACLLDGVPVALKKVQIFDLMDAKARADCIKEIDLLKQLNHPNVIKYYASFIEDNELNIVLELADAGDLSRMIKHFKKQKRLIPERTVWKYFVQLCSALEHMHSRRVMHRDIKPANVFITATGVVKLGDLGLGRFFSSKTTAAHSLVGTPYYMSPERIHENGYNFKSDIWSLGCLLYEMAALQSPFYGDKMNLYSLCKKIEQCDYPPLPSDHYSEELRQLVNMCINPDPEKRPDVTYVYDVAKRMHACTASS
UniProt Q8WUK0: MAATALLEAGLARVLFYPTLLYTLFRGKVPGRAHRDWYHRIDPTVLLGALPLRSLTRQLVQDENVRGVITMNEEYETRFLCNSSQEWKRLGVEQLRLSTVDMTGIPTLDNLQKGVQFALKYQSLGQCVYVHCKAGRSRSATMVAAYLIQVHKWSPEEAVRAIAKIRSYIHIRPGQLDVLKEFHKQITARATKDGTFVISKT
UniProt Q8NEN9: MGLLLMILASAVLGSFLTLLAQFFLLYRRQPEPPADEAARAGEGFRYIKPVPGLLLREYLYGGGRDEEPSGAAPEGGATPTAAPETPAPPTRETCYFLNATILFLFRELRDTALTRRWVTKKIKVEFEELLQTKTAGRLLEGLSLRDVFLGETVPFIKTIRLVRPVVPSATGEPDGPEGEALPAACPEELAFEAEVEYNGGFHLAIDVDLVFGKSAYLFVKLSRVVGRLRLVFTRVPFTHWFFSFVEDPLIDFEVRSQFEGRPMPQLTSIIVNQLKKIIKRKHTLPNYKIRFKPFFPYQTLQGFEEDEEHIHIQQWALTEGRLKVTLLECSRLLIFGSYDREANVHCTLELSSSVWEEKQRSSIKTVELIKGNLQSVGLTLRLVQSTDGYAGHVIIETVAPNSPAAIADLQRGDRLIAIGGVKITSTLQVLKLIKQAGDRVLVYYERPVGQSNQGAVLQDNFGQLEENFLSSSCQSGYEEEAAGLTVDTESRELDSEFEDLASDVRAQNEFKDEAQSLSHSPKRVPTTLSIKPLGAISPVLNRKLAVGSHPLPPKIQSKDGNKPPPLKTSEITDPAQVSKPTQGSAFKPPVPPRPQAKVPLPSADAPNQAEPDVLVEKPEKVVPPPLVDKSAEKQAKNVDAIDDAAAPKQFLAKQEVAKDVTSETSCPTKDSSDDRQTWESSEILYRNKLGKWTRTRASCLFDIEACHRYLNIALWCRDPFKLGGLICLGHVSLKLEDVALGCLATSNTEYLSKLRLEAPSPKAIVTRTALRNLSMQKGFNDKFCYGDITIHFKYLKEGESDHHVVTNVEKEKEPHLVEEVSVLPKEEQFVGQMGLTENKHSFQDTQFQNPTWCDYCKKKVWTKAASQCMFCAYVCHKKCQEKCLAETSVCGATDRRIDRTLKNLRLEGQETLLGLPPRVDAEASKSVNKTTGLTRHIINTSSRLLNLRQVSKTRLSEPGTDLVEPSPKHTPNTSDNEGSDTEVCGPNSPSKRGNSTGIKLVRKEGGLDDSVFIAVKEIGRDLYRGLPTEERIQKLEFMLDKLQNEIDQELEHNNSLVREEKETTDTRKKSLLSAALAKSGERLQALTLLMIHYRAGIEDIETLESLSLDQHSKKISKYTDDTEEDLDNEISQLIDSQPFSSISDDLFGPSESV
UniProt Q8WY54: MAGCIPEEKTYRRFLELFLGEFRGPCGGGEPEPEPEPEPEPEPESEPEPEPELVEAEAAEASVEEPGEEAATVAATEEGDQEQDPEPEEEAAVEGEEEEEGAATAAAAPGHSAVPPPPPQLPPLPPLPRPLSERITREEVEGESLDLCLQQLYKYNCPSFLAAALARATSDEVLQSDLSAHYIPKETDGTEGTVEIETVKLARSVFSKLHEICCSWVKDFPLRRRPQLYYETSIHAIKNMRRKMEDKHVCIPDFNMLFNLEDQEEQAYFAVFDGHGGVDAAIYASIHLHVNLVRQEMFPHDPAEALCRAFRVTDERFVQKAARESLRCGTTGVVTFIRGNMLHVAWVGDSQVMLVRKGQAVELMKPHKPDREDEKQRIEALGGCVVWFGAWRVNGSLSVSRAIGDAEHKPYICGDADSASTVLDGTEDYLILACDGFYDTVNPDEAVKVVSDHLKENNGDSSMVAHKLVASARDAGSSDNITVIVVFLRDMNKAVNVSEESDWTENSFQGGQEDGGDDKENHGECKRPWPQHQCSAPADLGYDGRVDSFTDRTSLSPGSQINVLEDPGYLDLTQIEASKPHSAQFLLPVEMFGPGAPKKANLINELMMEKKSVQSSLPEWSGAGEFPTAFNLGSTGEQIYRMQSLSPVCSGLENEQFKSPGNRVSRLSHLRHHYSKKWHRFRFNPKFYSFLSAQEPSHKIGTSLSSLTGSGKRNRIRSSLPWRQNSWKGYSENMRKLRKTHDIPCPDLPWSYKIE
UniProt Q8WU39: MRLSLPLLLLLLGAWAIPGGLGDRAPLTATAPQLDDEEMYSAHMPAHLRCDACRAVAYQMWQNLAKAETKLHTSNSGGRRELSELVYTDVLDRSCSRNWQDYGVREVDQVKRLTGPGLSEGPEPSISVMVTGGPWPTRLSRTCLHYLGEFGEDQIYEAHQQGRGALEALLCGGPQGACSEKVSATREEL
UniProt Q8WYQ5: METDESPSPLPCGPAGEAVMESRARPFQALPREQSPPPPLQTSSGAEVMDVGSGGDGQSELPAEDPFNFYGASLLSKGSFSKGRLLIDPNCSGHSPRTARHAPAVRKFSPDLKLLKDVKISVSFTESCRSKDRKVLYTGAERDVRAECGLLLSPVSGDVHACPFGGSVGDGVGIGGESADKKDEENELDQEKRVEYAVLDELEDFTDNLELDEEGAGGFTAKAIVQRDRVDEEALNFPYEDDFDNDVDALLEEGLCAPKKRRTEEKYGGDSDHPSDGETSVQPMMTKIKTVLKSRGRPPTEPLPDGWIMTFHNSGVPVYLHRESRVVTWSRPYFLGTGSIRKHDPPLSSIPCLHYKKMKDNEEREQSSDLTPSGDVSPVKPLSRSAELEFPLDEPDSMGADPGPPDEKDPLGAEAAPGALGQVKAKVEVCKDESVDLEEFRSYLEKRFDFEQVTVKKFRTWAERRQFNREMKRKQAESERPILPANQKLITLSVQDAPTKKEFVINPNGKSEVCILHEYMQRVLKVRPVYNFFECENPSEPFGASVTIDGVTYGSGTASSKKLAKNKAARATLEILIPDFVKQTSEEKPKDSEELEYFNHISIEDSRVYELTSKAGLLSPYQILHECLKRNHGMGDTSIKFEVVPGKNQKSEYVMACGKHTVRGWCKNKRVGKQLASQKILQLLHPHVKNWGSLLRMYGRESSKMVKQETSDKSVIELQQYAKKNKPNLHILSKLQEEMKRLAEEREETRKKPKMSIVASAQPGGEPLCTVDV

Here are results for 60 targets from the supplement of paper PMC6411743.

± gives the standard deviation of the averaged measurements. Only a part is listed here, and it is no random draw. Most values lie at the level of the controls, where differences are scatter.

For the target NUP210 (UniProt Q8TEM1), the NP40-soluble protein abundance runs as follows: (concentration: 0.1mM) 1.04 ± 0.018; (concentration: 0.5mM) 1 ± 0.042.
In the case of UniProt Q92614 and related entries, the NP40-soluble protein abundance runs as follows: (concentration: 0.1mM) 1.01 ± 0.021; (concentration: 0.5mM) 1.01 ± 0.038.
For ZNF740 (UniProt Q8NDX6) the same measures were 0.978 ± 0.032 and 0.991 ± 0.036.
For UniProt Q8NC60 the same measures were 0.962 ± 0.076 and 0.985 ± 0.052.
The corresponding values for UniProt Q8TAT6 and related entries are 0.971 ± 0.052 and 0.977 ± 0.018.
As for HDAC2 (UniProt Q92769), the NP40-soluble protein abundance runs as follows: (concentration: 0.1mM) 1.04 ± 0.025; (concentration: 0.5mM) 1.04 ± 0.015.
With UniProt Q8WZA9, the NP40-soluble protein abundance reads like this: (concentration: 0.1mM) 0.985 ± 0.014; (concentration: 0.5mM) 1 ± 0.058.
The corresponding values for UniProt Q8TBE0 and related entries are 1.02 ± 0.039 and 0.996 ± 0.038.
The corresponding values for PPTC7 (UniProt Q8NI37) are 1.011 ± 0.0077 and 1.008 ± 0.00073.
For TMEM263 (UniProt Q8WUH6) the same measures were 0.978 ± 0.02 and 1.01 ± 0.06.
For UniProt Q92572, the NP40-soluble protein abundance amounted to 0.999 ± 0.047 (concentration: 0.1mM) and 0.97 ± 0.023 (concentration: 0.5mM).
UniProt Q8NI08 and related entries: the NP40-soluble protein abundance (concentration: 0.1mM) turned out to be 0.94 ± 0.011 and the NP40-soluble protein abundance (concentration: 0.5mM) was found to be 0.953 ± 0.025.
For PMM1 (UniProt Q92871) the same measures were 1.01 ± 0.014 and 1.03 ± 0.033.
With UniProt Q8NHM5 and related entries, the NP40-soluble protein abundance (concentration: 0.1mM) was found to be 0.979 ± 0.01 and the NP40-soluble protein abundance (concentration: 0.5mM) is 0.969 ± 0.032.
With ERCC4 (UniProt Q92889), the NP40-soluble protein abundance runs as follows: (concentration: 0.1mM) 1.006 ± 0.0059; (concentration: 0.5mM) 1 ± 0.037.
For PRCC (UniProt Q92733) the same measures were 0.938 ± 0.025 and 0.983 ± 0.052.
As for SHCBP1 (UniProt Q8NEM2), the NP40-soluble protein abundance was 0.989 ± 0.02 (concentration: 0.1mM) and 1 ± 0.015 (concentration: 0.5mM).
In the case of UniProt Q8TEV9 and related entries, the NP40-soluble protein abundance was 0.97 ± 0.052 (concentration: 0.1mM) and 0.97 ± 0.03 (concentration: 0.5mM).
For the target UniProt Q8TEX9 and related entries, the NP40-soluble protein abundance (concentration: 0.1mM) came out at 1.07 ± 0.051 and the NP40-soluble protein abundance (concentration: 0.5mM) is 1.04 ± 0.04.
For MYST3 (UniProt Q92794) the same measures were 0.989 ± 0.015 and 1.03 ± 0.027.
For UniProt Q92783 and related entries, the NP40-soluble protein abundance is 0.989 ± 0.018 (concentration: 0.1mM) and 1.06 ± 0.04 (concentration: 0.5mM).
For UniProt Q8TBB5 and related entries, the NP40-soluble protein abundance by setting is: (concentration: 0.1mM) 0.955 ± 0.016; (concentration: 0.5mM) 1.01 ± 0.064.
In the case of NEK7 (UniProt Q8TDX7), the NP40-soluble protein abundance reads like this: (concentration: 0.1mM) 1.05 ± 0.036; (concentration: 0.5mM) 1.03 ± 0.045.
Consider MAML1 (UniProt Q92585), for which the NP40-soluble protein abundance reads like this: (concentration: 0.1mM) 0.973 ± 0.015; (concentration: 0.5mM) 0.973 ± 0.045.
The corresponding values for NUP205 (UniProt Q92621) are 1.03 ± 0.013 and 0.986 ± 0.11.
For CCNY (UniProt Q8ND76) the same measures were 0.994 ± 0.015 and 0.963 ± 0.021.
For UniProt Q8NCE2-2 the same measures were 1 ± 0.032 and 1.05 ± 0.015.
As to UniProt Q8WUK0 and related entries, the NP40-soluble protein abundance amounted to 0.966 ± 0.031 (concentration: 0.1mM) and 0.9272 ± 0.0034 (concentration: 0.5mM).
For GATAD2B (UniProt Q8WXI9) the same measures were 0.999 ± 0.015 and 1.01 ± 0.038.
For PDZD8 (UniProt Q8NEN9) the same measures were 0.997 ± 0.022 and 0.996 ± 0.07.
In the case of UniProt Q8WYP5 and related entries, the NP40-soluble protein abundance amounted to 0.985 ± 0.043 (concentration: 0.1mM) and 0.9964 ± 0.005 (concentration: 0.5mM).
For UniProt Q8WX93 and related entries the same measures were 0.991 ± 0.037 and 0.995 ± 0.06.
The corresponding values for UniProt Q8WY54 and related entries are 0.999 ± 0.031 and 1.02 ± 0.022.
SYMPK (UniProt Q92797): the NP40-soluble protein abundance (concentration: 0.1mM) came out at 1.02 ± 0.017 and the NP40-soluble protein abundance (concentration: 0.5mM) amounted to 0.998 ± 0.017.
The corresponding values for TMEM131 (UniProt Q92545) are 0.963 ± 0.021 and 0.985 ± 0.017.
For MZB1 (UniProt Q8WU39) the same measures were 1.02 ± 0.015 and 1.04 ± 0.046.
On to PXDN (UniProt Q92626), for which the NP40-soluble protein abundance turned out to be 0.984 ± 0.025 (concentration: 0.1mM) and 1 ± 0.051 (concentration: 0.5mM).
The corresponding values for UniProt Q92796-3 are 1.01 ± 0.016 and 1.03 ± 0.022.
On to GRPEL2 (UniProt Q8TAA5), for which the NP40-soluble protein abundance (concentration: 0.1mM) was determined as 1.03 ± 0.053 and the NP40-soluble protein abundance (concentration: 0.5mM) came to 1.04 ± 0.082.
For KHSRP (UniProt Q92945), the NP40-soluble protein abundance by setting is: (concentration: 0.1mM) 0.973 ± 0.018; (concentration: 0.5mM) 1.01 ± 0.058.
The corresponding values for ZNRF2 (UniProt Q8NHG8) are 0.979 ± 0.039 and 0.9891 ± 0.009.
The corresponding values for UniProt Q8WWY3 and related entries are 0.984 ± 0.02 and 0.9912 ± 0.0045.
In the case of UniProt Q8WYQ5 and related entries, the NP40-soluble protein abundance is 1.05 ± 0.059 (concentration: 0.1mM) and 0.974 ± 0.019 (concentration: 0.5mM).
For “UniProt Q8TEW0-8|Q5VWU8 and related entries”, the NP40-soluble protein abundance turned out to be 0.992 ± 0.036 (concentration: 0.1mM) and 1 ± 0.04 (concentration: 0.5mM).
For UniProt Q8TB36 and related entries the same measures were 0.988 ± 0.021 and 0.986 ± 0.049.
For UniProt Q92540 and related entries the same measures were 0.99 ± 0.03 and 0.9589 ± 0.0053.
Turning to RNF169 (UniProt Q8NCN4), the NP40-soluble protein abundance stood at 1.08 ± 0.22 (concentration: 0.1mM) and 0.989 ± 0.052 (concentration: 0.5mM).
For UniProt Q92834 and related entries the same measures were 0.969 ± 0.013 and 0.9824 ± 0.0049.
As for UBXN4 (UniProt Q92575), the NP40-soluble protein abundance reads like this: (concentration: 0.1mM) 0.9721 ± 0.0042; (concentration: 0.5mM) 0.997 ± 0.073.
The corresponding values for UniProt Q8TB72-3 are 0.9713 ± 0.0054 and 1 ± 0.075.
For UniProt Q8TC07-2 the same measures were 1.02 ± 0.023 and 0.992 ± 0.041.
ZNF592 (UniProt Q92610): the NP40-soluble protein abundance came to 1 ± 0.056 (concentration: 0.1mM) and 0.991 ± 0.047 (concentration: 0.5mM).
For UniProt Q92734 and related entries the same measures were 0.986 ± 0.024 and 1 ± 0.053.
For UniProt Q92538 and related entries the same measures were 0.987 ± 0.032 and 0.974 ± 0.045.
Take ZNF516 (UniProt Q92618): the NP40-soluble protein abundance runs as follows: (concentration: 0.1mM) 0.999 ± 0.02; (concentration: 0.5mM) 0.986 ± 0.024.
Consider ELMO1 (UniProt Q92556), for which the NP40-soluble protein abundance turned out to be 0.991 ± 0.028 (concentration: 0.1mM) and 0.992 ± 0.035 (concentration: 0.5mM).
The corresponding values for UniProt Q8TA86 and related entries are 1.02 ± 0.026 and 1.03 ± 0.062.
For PSPC1 (UniProt Q8WXF1) the same measures were 0.996 ± 0.014 and 1.013 ± 0.0066.
As for UniProt Q8WUY1, the NP40-soluble protein abundance came to 0.989 ± 0.031 (concentration: 0.1mM) and 0.995 ± 0.049 (concentration: 0.5mM).
As to UniProt Q8TDZ2 and related entries, the NP40-soluble protein abundance came out at 0.979 ± 0.025 (concentration: 0.1mM) and 0.988 ± 0.038 (concentration: 0.5mM).
